Paper PMC10537967
These are yes or no findings as the source states them, for the method shown. In cells and extracts the contact can be indirect. These calls come from enrichment with a bait or labelling near it, and not all partners need be listed.

Protein sequences, listed by entry. Tags and fused reporters are not part of them.
UniProt P09874: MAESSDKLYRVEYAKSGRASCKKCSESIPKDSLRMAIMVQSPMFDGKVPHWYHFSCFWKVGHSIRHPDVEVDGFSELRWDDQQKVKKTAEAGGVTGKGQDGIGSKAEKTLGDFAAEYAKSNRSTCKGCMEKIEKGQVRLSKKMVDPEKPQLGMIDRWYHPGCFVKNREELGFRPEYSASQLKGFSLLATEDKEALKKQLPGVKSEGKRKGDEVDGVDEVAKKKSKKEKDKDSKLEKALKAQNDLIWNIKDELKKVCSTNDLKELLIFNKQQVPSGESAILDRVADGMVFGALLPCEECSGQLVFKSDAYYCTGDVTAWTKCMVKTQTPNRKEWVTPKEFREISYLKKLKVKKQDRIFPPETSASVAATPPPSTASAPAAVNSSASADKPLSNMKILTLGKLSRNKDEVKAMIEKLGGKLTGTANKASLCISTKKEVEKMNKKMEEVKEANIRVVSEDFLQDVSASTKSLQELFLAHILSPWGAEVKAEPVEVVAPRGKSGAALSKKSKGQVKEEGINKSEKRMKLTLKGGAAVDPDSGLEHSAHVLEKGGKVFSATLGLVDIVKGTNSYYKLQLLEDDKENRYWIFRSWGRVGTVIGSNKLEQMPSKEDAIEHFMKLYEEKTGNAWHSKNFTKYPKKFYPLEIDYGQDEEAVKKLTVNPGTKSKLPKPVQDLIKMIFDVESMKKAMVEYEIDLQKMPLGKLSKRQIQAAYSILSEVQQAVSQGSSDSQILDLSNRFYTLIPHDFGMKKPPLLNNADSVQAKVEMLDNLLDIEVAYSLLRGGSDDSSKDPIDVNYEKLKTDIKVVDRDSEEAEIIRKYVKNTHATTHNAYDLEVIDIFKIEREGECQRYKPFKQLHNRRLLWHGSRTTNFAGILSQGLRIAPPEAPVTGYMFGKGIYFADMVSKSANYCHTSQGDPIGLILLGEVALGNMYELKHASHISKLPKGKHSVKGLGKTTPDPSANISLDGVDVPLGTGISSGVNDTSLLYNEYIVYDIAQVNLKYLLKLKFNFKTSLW

Target: T1, MRE11^K464R protein (human) (UniProt P49959)
T1 sequence: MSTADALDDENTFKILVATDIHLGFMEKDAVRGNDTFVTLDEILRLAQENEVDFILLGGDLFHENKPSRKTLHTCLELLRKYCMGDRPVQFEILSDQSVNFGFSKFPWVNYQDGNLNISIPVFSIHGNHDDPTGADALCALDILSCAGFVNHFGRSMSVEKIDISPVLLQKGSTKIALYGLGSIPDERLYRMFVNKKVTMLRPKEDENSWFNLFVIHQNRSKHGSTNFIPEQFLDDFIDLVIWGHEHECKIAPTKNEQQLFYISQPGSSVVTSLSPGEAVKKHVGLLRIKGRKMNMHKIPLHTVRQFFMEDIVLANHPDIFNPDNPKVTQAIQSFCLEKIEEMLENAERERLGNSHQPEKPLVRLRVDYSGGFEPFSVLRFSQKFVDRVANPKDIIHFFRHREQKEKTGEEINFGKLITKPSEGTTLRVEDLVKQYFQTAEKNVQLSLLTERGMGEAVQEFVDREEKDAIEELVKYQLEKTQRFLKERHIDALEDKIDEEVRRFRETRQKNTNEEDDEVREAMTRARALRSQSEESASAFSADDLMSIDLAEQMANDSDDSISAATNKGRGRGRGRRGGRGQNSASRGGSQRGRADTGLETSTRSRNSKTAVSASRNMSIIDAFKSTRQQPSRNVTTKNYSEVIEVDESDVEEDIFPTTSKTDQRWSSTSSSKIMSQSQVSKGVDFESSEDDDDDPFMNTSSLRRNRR
Assay: affinity purification with mass spectrometry; MRE11 and its interacting proteins extracted from cells with an IP kit (Absin abs955) and analysed by mass spectrometry; proteins higher (Fold Change > 2) in the K464R group than in the WT group taken as interactors, then filtered with the STRING database

Row | Molecule | binding
1 | PARP1 (from UniProt P09874 1-1014) | binds
2 | DDX1 (protein, UniProt Q92499 1-740) MAAFSEMGVMPEIAQAVEEMDWLLPTDIQAESIPLILGGGDVLMAAETGSGKTGAFSIPVIQIVYETLKDQQEGKKGKTTIKTGASVLNKWQMNPYDRGSAFAIGSDGLCCQSREVKEWHGCRATKGLMKGKHYYEVSCHDQGLCRVGWSTMQASLDLGTDKFGFGFGGTGKKSHNKQFDNYGEEFTMHDTIGCYLDIDKGHVKFSKNGKDLGLAFEIPPHMKNQALFPACVLKNAELKFNFGEEEFKFPPKDGFVALSKAPDGYIVKSQHSGNAQVTQTKFLPNAPKALIVEPSRELAEQTLNNIKQFKKYIDNPKLRELLIIGGVAARDQLSVLENGVDIVVGTPGRLDDLVSTGKLNLSQVRFLVLDEADGLLSQGYSDFINRMHNQIPQVTSDGKRLQVIVCSATLHSFDVKKLSEKIMHFPTWVDLKGEDSVPDTVHHVVVPVNPKTDRLWERLGKSHIRTDDVHAKDNTRPGANSPEMWSEAIKILKGEYAVRAIKEHKMDQAIIFCRTKIDCDNLEQYFIQQGGGPDKKGHQFSCVCLHGDRKPHERKQNLERFKKGDVRFLICTDVAARGIDIHGVPYVINVTLPDEKQNYVHRIGRVGRAERMGLAISLVATEKEKVWYHVCSSRGKGCYNTRLKEDGGCTIWYNEMQLLSEIEEHLNCTISQVEPDIKVPVDEFDGKVTYGQKRAAGGGSYKGHVDILAPTVQELAALEKEAQTSFLHLGYLPNQLFRTF | binds
